These are yes or no findings as the source states them, for the method shown. Binding seen in cells or lysates may run through a third protein. Some entries that bind do so weakly or less than the wild type. Where a sequence is shown, tags or fusion partners need not be part of it.
Columns and labels:
Myc-PRDX1 (human) = target: T1, Myc-PRDX1 (human) (UniProt Q06830); test: co-IP; tagged proteins transiently co-transfected into 293T cells; for HECTD3 constructs IP with anti-Myc antibody; Western blotting
T1 sequence: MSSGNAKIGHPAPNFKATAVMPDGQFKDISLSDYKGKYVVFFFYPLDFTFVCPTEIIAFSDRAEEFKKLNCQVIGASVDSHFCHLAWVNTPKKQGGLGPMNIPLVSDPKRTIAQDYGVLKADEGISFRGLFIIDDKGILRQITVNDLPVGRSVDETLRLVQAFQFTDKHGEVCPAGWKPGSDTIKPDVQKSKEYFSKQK

Chains of the proteins cited; added tags and fusions are not shown.
UniProt P51617: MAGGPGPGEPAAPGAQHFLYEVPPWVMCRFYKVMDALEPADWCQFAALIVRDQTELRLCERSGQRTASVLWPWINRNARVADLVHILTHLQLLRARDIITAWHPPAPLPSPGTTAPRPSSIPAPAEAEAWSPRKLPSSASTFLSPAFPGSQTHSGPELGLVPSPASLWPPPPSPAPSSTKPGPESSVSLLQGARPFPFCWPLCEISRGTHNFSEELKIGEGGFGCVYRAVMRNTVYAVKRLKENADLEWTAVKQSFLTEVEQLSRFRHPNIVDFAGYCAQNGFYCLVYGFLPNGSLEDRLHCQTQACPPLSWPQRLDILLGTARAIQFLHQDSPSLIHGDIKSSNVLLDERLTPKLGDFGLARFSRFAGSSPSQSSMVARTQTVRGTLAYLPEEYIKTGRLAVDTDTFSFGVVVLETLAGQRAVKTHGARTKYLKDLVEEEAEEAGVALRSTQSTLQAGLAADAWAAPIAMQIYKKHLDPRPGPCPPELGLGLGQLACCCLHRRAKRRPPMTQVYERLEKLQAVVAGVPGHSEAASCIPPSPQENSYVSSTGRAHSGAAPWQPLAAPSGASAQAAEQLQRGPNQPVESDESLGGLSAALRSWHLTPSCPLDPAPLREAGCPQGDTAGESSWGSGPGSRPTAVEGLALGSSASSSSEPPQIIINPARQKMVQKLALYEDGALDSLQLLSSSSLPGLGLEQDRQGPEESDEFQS

GST-PRDX1 fusion protein = target: T2, GST-PRDX1 fusion protein (UniProt Q06830); test: pull-down; purified GST-PRDX1 incubated with total protein of 293T cells overexpressing Flag-IRAK1 at 4 °C overnight, glutathione-sepharose beads 2 h, Western blotting; only the target purified
T2 sequence: T1 sequence

With Flag-IRAK1 (from UniProt P51617 1-712) the binding (Myc-PRDX1 (human)) was “binds” and the binding (GST-PRDX1 fusion protein) was “binds”.

Source: article PMC10082800
